{"sequences": {"note": "Sequences of proteins named here, by UniProt entry; tags and fusion partners are left off.", "UniProt P18054, whole entry, looked up": "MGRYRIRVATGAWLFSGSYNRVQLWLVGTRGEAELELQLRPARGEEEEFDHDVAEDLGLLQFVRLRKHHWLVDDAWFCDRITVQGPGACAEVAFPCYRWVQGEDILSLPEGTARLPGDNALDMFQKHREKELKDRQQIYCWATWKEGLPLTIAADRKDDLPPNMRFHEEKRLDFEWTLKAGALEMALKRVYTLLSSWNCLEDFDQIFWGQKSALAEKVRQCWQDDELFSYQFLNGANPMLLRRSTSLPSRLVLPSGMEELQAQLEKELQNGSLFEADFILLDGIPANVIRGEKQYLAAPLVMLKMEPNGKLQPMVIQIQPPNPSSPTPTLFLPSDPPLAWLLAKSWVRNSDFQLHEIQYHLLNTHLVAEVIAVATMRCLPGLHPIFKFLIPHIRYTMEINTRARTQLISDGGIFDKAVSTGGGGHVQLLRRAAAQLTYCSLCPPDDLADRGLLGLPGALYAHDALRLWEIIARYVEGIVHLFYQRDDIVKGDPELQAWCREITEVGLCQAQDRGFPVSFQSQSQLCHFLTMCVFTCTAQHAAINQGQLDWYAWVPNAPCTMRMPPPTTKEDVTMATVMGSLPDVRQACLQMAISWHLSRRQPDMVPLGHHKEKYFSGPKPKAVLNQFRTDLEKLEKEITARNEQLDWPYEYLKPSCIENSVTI"}, "source": "PubChem BioAssay AID1671190", "about": "(National Center for Advancing Translational Sciences (NCATS), 2021)", "note": "About 6,100 (1.1%) of roughly 580,000 compounds were called active. The shares of active, inactive and inconclusive entries below differ from those in the screen. Calls follow the shape of the dose curve; as a rule, active = well fitted inhibition curve with a large enough effect; inconclusive = small, poorly fitted or top-dose-only effect, or another doubt; inactive = no such curve, though single readings can be large or run the other way. Where the call is inconclusive, the potency comes from a doubtful curve fit. % is scaled to controls: 0 for no effect and ±100 for the full control effect; potency is read from the fitted curve at half-maximal effect.", "data": [{"target": "Polyunsaturated fatty acid lipoxygenase ALOX12 (Homo sapiens) (UniProt P18054)", "assay": "Primary qHTS assay for inhibitors of human arachidonate 12S-lipoxygenase (ALOX12): Round 2", "settings": "purified 12hLO, xylenol orange hydroperoxide absorbance; activity change, negative = inhibition: at 108 µM (top of the series) unless noted", "procedure,_shortened": "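Purified human 12hLO at 150 nM in 25 mM Hepes, 0.01% Triton X-100, pH 7.0, preincubated 15 min at room temperature with compound. Reaction started with 40 uM arachidonic acid, 30 min at room temperature. Hydroperoxide measured by Fe-xylenol orange, 573/405 nm absorbance ratio.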", "values": [{"smiles": "CCCCNC(N)=S", "Potency": "inconclusive: 39.8 µM [inhibitor, partial curve, poor fit]"}, {"smiles": "CC(C)(C)c1cc(C(=O)NCC(=O)OCC(=O)c2cccc([N+](=O)[O-])c2)cc(C(C)(C)C)c1", "Potency": "inconclusive: 35.5 µM [inhibitor, partial curve, poor fit]"}, {"smiles": "COc1cc(CNc2cccc3[nH]c(C(F)(F)F)nc23)cc(OC)c1", "activity change, negative = inhibition": "inactive: -4.75%"}, {"smiles": "Cc1ccc(NC(=S)N(CCN2CCOCC2)Cc2cc3cc4c(cc3[nH]c2=O)OCO4)cc1", "Potency": "inconclusive: 112 µM [inhibitor, single point]"}, {"smiles": "Cc1cc(C(=O)CN2CCN(Cc3ccc(C#N)cc3)CC2)c(C)n1Cc1cccs1", "Potency": "inconclusive: 44.7 µM [inhibitor, partial curve, poor fit]"}, {"smiles": "OC1(c2ccccc2)CNCCc2ccccc21", "note": "(stereo unspecified)", "Potency": "inconclusive: 35.5 µM [inhibitor, single point]"}, {"smiles": "O=C(Nc1ccc(OC2CCCC2)cc1)c1ccncc1", "Potency": "inconclusive: 39.8 µM [inhibitor, partial curve, poor fit]"}, {"smiles": "Cc1ccc(N(C)S(=O)(=O)c2cccc(C(=O)OCC(=O)N(C)Cc3ccccc3)c2)cc1", "Potency": "inconclusive: 89.1 µM [inhibitor, single point]"}, {"smiles": "CSc1ccc(NC(=O)C2CCN(C(=O)c3ncn4c3COC(c3ccc(F)cc3)C4)CC2)cc1", "note": "(stereo unspecified)", "activity change, negative = inhibition": "inactive: 19.7%"}, {"smiles": "COC(=O)c1sc(S(=O)(=O)N2CCN(c3ccccc3F)CC2)c(C(=O)OC)c1C", "Potency": "inconclusive: 31.6 µM [inhibitor, partial curve, poor fit]"}, {"smiles": "COc1ccc(NC(C)=[N+](C)CCNS(=O)(=O)c2ccc(Cl)cc2)cc1Cl", "Potency": "inconclusive: 31.6 µM [inhibitor, single point]"}, {"smiles": "COc1ccc(N(CC(=O)Nc2ccccc2C(=O)O)S(=O)(=O)c2ccc(C)c([N+](=O)[O-])c2)cc1", "Potency": "inconclusive: 63.1 µM [inhibitor, partial curve, poor fit]"}, {"smiles": "CC(C)c1noc(-c2ccn3c(CNC(=O)c4ccoc4)nnc3c2)n1", "activity change, negative = inhibition": "inactive: 5.24%"}, {"smiles": "COc1cccc(N2CCN(C(=O)c3cn(-c4ccccc4)nc3-c3cccnc3)CC2)c1", "Potency": "inconclusive: 50.1 µM [inhibitor, partial curve, poor fit]"}, {"smiles": "Cc1ccc(C2CCCN2Cc2ccc(C#N)cc2)cc1", "note": "(stereo unspecified)", "Potency": "inconclusive: 1.78 µM [inhibitor, full curve, poor fit]"}, {"smiles": "COc1ccc(C(C)(C)C)cc1NC(=O)CN(C)C1=NS(=O)(=O)c2ccccc21", "Potency": "inconclusive: 44.7 µM [inhibitor, partial curve, poor fit]"}, {"smiles": "Fc1ccccc1-c1nc2c(s1)CCc1onc(-c3ccc(Br)cc3)c1-2", "activity change, negative = inhibition": "inactive: -24.7%"}, {"smiles": "COc1cccc(CN2CCNC(=O)C2CC(=O)NCCN2CCOCC2)c1OC", "note": "(stereo unspecified)", "Potency": "inconclusive: 6.31 µM [inhibitor, full curve, poor fit]"}, {"smiles": "O=C(CCl)NN=C(c1ccccc1)c1ccccc1", "Potency": "inconclusive: 7.08 µM [inhibitor, full curve, poor fit]"}, {"smiles": "CNc1ccc(Cl)cc1C(N)=O", "Potency": "inconclusive: 126 µM [inhibitor, single point]"}, {"smiles": "COc1ccc(C2=NCC(C)n3nc4ccccc4c32)cc1", "note": "(stereo unspecified)", "Potency": "inconclusive: 79.4 µM [inhibitor, single point]"}, {"smiles": "CCCCN1C(=O)c2[nH]nc(-c3ccccc3O)c2C1c1ccc(OCc2ccccc2)c(OC)c1", "note": "(stereo unspecified)", "activity change, negative = inhibition": "inactive: 3.79%"}, {"smiles": "O=C(NCc1ccco1)c1nc(-c2ccccc2)n(-c2ccccc2)n1", "Potency": "inconclusive: 56.2 µM [inhibitor, partial curve, poor fit]"}, {"smiles": "O=C(O)CCC(=O)NCc1ccc(F)cc1", "activity change, negative = inhibition": "inactive: 20.3%"}, {"smiles": "C=C(C)C[C@H]1CC=C[C@H](CC(=C)C)N1", "Potency": "inconclusive: 14.1 µM [inhibitor, full curve, poor fit]"}, {"smiles": "CCOC(=O)c1cccc(NC(=O)CCc2c(C)nn(-c3ccc(N4CCCCC4)nn3)c2C)c1", "activity change, negative = inhibition": "inactive: -7.19%"}, {"smiles": "Cc1ccc(S(=O)(=O)Nc2cccc(C(=O)NCC3(N4CCCCC4)CCCCC3)c2)cc1F", "activity change, negative = inhibition": "inactive: -42.7%"}, {"smiles": "COc1ccc(CCNCC(=O)Nc2ccc(C)c(Br)c2)cc1OC", "Potency": "inconclusive: 5.62 µM [inhibitor, full curve, poor fit]"}, {"smiles": "CCC(=O)Nc1c(-c2cc(=O)oc3ccc(CC)cc23)oc2ccccc12", "Potency": "inconclusive: 5.62 µM [inhibitor, full curve, poor fit]"}, {"smiles": "CC(CN1CCOCC1)OC(=O)COc1ccc(F)cc1", "note": "(stereo unspecified)", "Potency": "inconclusive: 3.98 µM [inhibitor, full curve, poor fit]"}, {"smiles": "COC(=O)[C@H]1Cc2c([nH]c3ccccc23)CN1C(=O)COc1ccc2c(C)cc(=O)oc2c1", "Potency": "inconclusive: 8.91 µM [inhibitor, partial curve, poor fit]"}, {"smiles": "Cc1cc(Cl)ccc1NC(=S)NCc1ccccc1Cl", "Potency": "inconclusive: 44.7 µM [inhibitor, partial curve]"}, {"smiles": "COc1ccc(OC)c(C(=O)c2oc3ccc(NC(=O)C(C)(C)C)cc3c2C)c1", "activity change, negative = inhibition": "inconclusive: -32.6% [inhibitor]"}, {"smiles": "CCOC(=O)CSc1nc(-c2ccccc2)ns1", "Potency": "inconclusive: 44.7 µM [inhibitor, partial curve, poor fit]"}, {"smiles": "COCC(=O)Nc1nnc(SCC(=O)N2C(C)CCCC2C)s1", "note": "(stereo unspecified)", "Potency": "inconclusive: 39.8 µM [inhibitor, full curve, poor fit]"}, {"smiles": "O=C(Cc1c[nH]c2ccccc12)NC1(c2ccccc2)CCC1", "activity change, negative = inhibition": "inactive: 8.31%"}, {"smiles": "Cc1ccc(C(=O)N(CC(=O)Nc2sc(C)c(C)c2C(N)=O)C2CCCC2)cc1", "activity change, negative = inhibition": "inconclusive: -36.1% [inhibitor]"}, {"smiles": "CN(CCOc1ccccc1)CC(=O)Nc1ccc(Cl)cc1[N+](=O)[O-]", "Potency": "inconclusive: 0.398 µM [inhibitor, full curve, poor fit]"}, {"smiles": "Clc1ccc(N/N=C/c2ccccc2)cc1Cl", "Potency": "active: 2.24 µM"}, {"smiles": "O=S(=O)(N[C@H]1CO[C@H]2[C@@H]1OC[C@@H]2n1cc(-c2ccccn2)nn1)c1cccs1", "Potency": "active: 63.1 µM"}, {"smiles": "COc1cccc(CNC(=O)[C@H]2CCCN2C(=O)C2CCCN2C(=O)c2ccc(OC)c(F)c2)c1", "note": "(stereo partly specified)", "Potency": "inconclusive: 31.6 µM [inhibitor, partial curve, poor fit]"}]}]}
